This is an account of results in PMC6335440.

In test [1] the target is T1, full length myc-tagged Atmin (UniProt Q6P9S1).
T1 sequence: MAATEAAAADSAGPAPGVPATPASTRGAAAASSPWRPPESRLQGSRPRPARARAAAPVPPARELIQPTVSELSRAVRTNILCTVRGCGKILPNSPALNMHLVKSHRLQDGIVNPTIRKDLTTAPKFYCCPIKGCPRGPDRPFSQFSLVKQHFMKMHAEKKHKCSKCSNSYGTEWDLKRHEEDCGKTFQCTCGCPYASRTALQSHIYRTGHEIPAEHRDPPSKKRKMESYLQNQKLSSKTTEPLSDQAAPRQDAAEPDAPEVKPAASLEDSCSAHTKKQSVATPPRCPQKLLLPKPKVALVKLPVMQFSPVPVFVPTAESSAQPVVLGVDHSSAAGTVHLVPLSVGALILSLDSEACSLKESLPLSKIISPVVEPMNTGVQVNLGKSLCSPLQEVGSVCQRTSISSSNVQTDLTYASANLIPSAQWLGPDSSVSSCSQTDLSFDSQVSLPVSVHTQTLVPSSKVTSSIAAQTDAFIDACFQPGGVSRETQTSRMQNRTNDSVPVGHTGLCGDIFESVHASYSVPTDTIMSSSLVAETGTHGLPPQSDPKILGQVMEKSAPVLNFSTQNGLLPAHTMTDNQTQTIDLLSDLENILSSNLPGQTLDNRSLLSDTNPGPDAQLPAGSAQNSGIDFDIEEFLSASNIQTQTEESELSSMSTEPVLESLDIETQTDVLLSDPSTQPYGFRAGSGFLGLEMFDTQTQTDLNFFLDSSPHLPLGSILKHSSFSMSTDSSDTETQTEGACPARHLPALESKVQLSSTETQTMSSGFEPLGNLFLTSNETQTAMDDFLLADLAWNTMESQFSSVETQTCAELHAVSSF
As to the kind of experiment: co-IP; forward: ATMIN-MYC precipitated with rabbit anti-MYC and Protein G sepharose from lysates of co-transfected HEK293T cells, overnight at 4 °C; lysis buffer 50 mM Tris pH 8, 150 mM NaCl, 1% NP-40; blot for GFP.

For test [2], the target named is the last 193 amino acids of the C-terminus of GFP-tagged Fibrocystin. As to the kind of experiment: co-IP; reverse: C-terminal Pkhd1-GFP precipitated with mouse anti-GFP and Protein G sepharose from lysates of co-transfected HEK293T cells, overnight at 4 °C; lysis buffer 50 mM Tris pH 8, 150 mM NaCl, 1% NP-40; blot for MYC.

No constants are given. Whether binding was seen depends on the method and setting. In cells and extracts the contact can be indirect. Where a sequence is shown, tags or fusion partners need not be part of it.

With “the last 193 amino acids of the C-terminus of GFP-tagged Fibrocystin (domain or fragment)”, the binding result in test [1] was “no binding”.

B1: full length myc-tagged Atmin (protein, UniProt Q6P9S1 1-818)
chain: T1 sequence
Regarding B1, the binding result in test [2] was “no binding”.
